Source: PubChem BioAssay AID504749 (NCATS, 2011).

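Malaria parasite (P. falciparum) lines kept in red blood cells; parasite DNA is measured by SYBR Green fluorescence after lysis, 72 h after compound addition.
Each compound was titrated across a series from about 0.000037 to 29 µM.
The number is the fitted AC50, the concentration giving a half-maximal change in signal; a lower value means higher potency, whether the curve shows a decrease or an increase.
Calls follow the curve class and fit quality: every row here is inconclusive, covering signal-raising curves and weak, poorly fitted, partial or highest-dose-only inhibition curves.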

Values are in µM.
Every entry below has the call inconclusive.
These entries are mostly ones the record files as inconclusive; other results of the assay are not listed here.
Potencies fitted to partial, single-point or poorly fitting curves are rough.
Some entries filed as inconclusive have a full curve.

{"compound": "CN1CCN(c2c(F)cc3c(=O)c(C(=O)O)cn4c3c2SCC4)CC1", "setting": "CP325", "fitted potency (µM)": "15.1", "curve": "inhibitor, single point"}
{"compound": "CN1CCN(c2c(F)cc3c(=O)c(C(=O)O)cn4c3c2SCC4)CC1", "setting": "P93_24", "fitted potency (µM)": "5.623", "curve": "inhibitor, partial curve, poor fit"}
{"compound": "CN1CCN(c2c(F)cc3c(=O)c(C(=O)O)cn4c3c2SCC4)CC1", "setting": "parasite line A", "fitted potency (µM)": "7.08", "curve": "inhibitor, partial curve, poor fit"}
{"compound": "CN1CCN(c2c(F)cc3c(=O)c(C(=O)O)cn4c3c2SCC4)CC1", "setting": "ATS189", "fitted potency (µM)": "1.778", "curve": "inhibitor, single point"}
{"compound": "CN1CCN(c2c(F)cc3c(=O)c(C(=O)O)cn4c3c2SCC4)CC1", "setting": "CP265", "fitted potency (µM)": "1.585", "curve": "inhibitor, full curve"}
{"compound": "CN1CCN(c2c(F)cc3c(=O)c(C(=O)O)cn4c3c2SCC4)CC1", "setting": "DFO2036", "fitted potency (µM)": "5.623", "curve": "inhibitor, partial curve, poor fit"}
{"compound": "CN1CCN(c2c(F)cc3c(=O)c(C(=O)O)cn4c3c2SCC4)CC1", "setting": "CP191", "fitted potency (µM)": "7.943", "curve": "inhibitor, partial curve, poor fit"}
{"compound": "CN1CCN(c2c(F)cc3c(=O)c(C(=O)O)cn4c3c2SCC4)CC1", "setting": "W2", "fitted potency (µM)": "19.01", "curve": "inhibitor, single point"}
{"compound": "CN1CCN(c2c(F)cc3c(=O)c(C(=O)O)cn4c3c2SCC4)CC1", "setting": "CP297", "fitted potency (µM)": "10.69", "curve": "inhibitor, partial curve, poor fit"}
{"compound": "CN1CCN(c2c(F)cc3c(=O)c(C(=O)O)cn4c3c2SCC4)CC1", "setting": "CP215", "fitted potency (µM)": "6.746", "curve": "inhibitor, partial curve"}
{"compound": "CN1CCN(c2c(F)cc3c(=O)c(C(=O)O)cn4c3c2SCC4)CC1", "setting": "CP268", "fitted potency (µM)": "5.358", "curve": "inhibitor, partial curve"}
{"compound": "CN1CCN(c2c(F)cc3c(=O)c(C(=O)O)cn4c3c2SCC4)CC1", "setting": "AA1029", "fitted potency (µM)": "7.943", "curve": "inhibitor, partial curve, poor fit"}
{"compound": "CN1CCN(c2c(F)cc3c(=O)c(C(=O)O)cn4c3c2SCC4)CC1", "setting": "CP217", "fitted potency (µM)": "1.995", "curve": "inhibitor, full curve"}
{"compound": "CN1CCN(c2c(F)cc3c(=O)c(C(=O)O)cn4c3c2SCC4)CC1", "setting": "CP291", "fitted potency (µM)": "7.569", "curve": "inhibitor, partial curve, poor fit"}
{"compound": "CN1CCN(c2c(F)cc3c(=O)c(C(=O)O)cn4c3c2SCC4)CC1", "setting": "CP252", "fitted potency (µM)": "3.548", "curve": "inhibitor, partial curve"}
{"compound": "CN1CCN(c2c(F)cc3c(=O)c(C(=O)O)cn4c3c2SCC4)CC1", "setting": "CP286", "fitted potency (µM)": "6.31", "curve": "inhibitor, partial curve"}
{"compound": "CN1CCN(c2c(F)cc3c(=O)c(C(=O)O)cn4c3c2SCC4)CC1", "setting": "TAB165", "fitted potency (µM)": "5.623", "curve": "inhibitor, partial curve, poor fit"}
{"compound": "CN1CCN(c2c(F)cc3c(=O)c(C(=O)O)cn4c3c2SCC4)CC1", "setting": "CP305", "fitted potency (µM)": "12", "curve": "inhibitor, single point"}
{"compound": "CN1CCN(c2c(F)cc3c(=O)c(C(=O)O)cn4c3c2SCC4)CC1", "setting": "N140", "fitted potency (µM)": "7.08", "curve": "inhibitor, partial curve"}